Experimental data taken from PubChem BioAssay AID1487 (National Center for Advancing Translational Sciences (NCATS), 2009).
Hit rate of the full screen: of about 200,000 compounds, about 25 (0.01%) were called active. This list was built around the results that the source calls inconclusive (neither active nor inactive); the mix of calls is not that of the screen. Calls come from the whole dose curve; as a rule, active = well fitted inhibition curve with a large enough effect in the signal ratio, with a control signal flat (not every such curve was filed as active); inconclusive = small, poorly fitted or top-dose-only effect, or effect the other way, or a change in a side signal; inactive = flat fitted curve, though single readings scatter; the % refers to the signal ratio. A potency beside an inconclusive call is a rough fit, not a confirmed value.

Assay: qHTS Assay for Modulators of Lamin A Splicing
Details: HeLa LMNA splicing GFP/RFP minigene ratio, 48 h; ratio change, negative = inhibition: at 46.1 µM (top of the series) unless noted
How it was run: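 Read-out is the ratio of GFP to DsRed2 object intensity, acquired by 488 nm laser-scanning cytometry on HeLa lamin A-EGFP minigene reporter cells. Compound incubation 48 hrs at 37 °C in Opti-MEM with 2% FBS; DMSO 0.5% final.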
% is set by controls: 0 for no effect and ±100 for the full control effect; potency is the fitted concentration of half-maximal effect.

Structure (SMILES)	ratio change, negative = inhibition	Potency
Cc1ccc(C(C)C)c(OCC(=O)NCC2(N(C)C)CCCCC2)c1	inconclusive: 12% [at 46 µM]	–
COc1ccc(OC)c2sc(N3CCN(C(=O)C(C)(C)C)CC3)nc12	inconclusive: 24.8% [at 46 µM]	–
CCOC(=O)C1=C(CN2CCC(C)CC2)NC(=O)NC1c1ccc(F)cc1 (centres undefined)	inconclusive: 8.54% [at 46 µM]	–
COCCn1c(SCC(=O)c2ccc3c(c2)OCCO3)nnc1-c1ccoc1C	–	inconclusive: 15.8 µM [fluorescent, single point]
Cc1c(CCNC(=O)c2ccc(Br)o2)sc2nc(-c3ccc(F)cc3)nn12	inactive: 2.03% [at 46 µM]	–
Cc1nn(C)c(Cl)c1/C=N/OC(=O)c1ccc(F)cc1	inconclusive: -10.3% [at 46 µM]	–
COc1ccc(CN(C)Cc2nc(Cc3cccc(F)c3)no2)c2cccnc12	inconclusive: -7.65% [at 46 µM]	–
COc1ccc(Nc2nc(-c3ccc(C)cc3)nc3ccccc23)c(OC)c1	inconclusive: -33.9% [at 46 µM]	–
CCOc1cc(CNC(=O)C2COc3ccccc3C2)cc(OCC)c1OCC (centres undefined)	inconclusive: -1.48% [at 46 µM]	–
O=C1NC(=Nc2ccc(Cl)cc2)/C(=C/c2ccco2)S1	inconclusive: 6.84%	–
Nc1nonc1C(=O)NCCNCc1cc(Br)ccc1OCc1ccc(F)cc1	inconclusive: -28.3%	–
CC1CCCCC1NC(=O)COC(=O)/C=C/c1ccc2c(c1)OCO2 (centres undefined)	inconclusive: -4.14%	–
CCCc1nc(SCC(=O)NCc2ccco2)c2c(=O)n(C)c(=O)n(C)c2n1	inactive: -5.14%	–
O=C(NC1CCCCCCC1)c1cc(COc2ccc3ncccc3c2)on1	inconclusive: -35.5% [at 46 µM]	–
CCc1nnc(N/N=C/c2c(C)[nH]c3ccccc23)n1N	inconclusive: -12.8% [at 9.22 µM]	–
O=C(O)CC1SC(N/N=C/c2ccc(Br)cc2)NC1=O (centres undefined)	inconclusive: 11% [at 46 µM]	–
Cc1ccc(-c2nc(C)sc2CC(=O)Nc2nnc(C)s2)cc1	inconclusive: -25.7% [at 46 µM]	–
CCc1ccc(CNc2ncnc3c2nc2n3CCCC2)cc1	–	inconclusive: 31.6 µM [inhibitor, single point]
Cc1ccc(C(=O)N2NC(c3ccc(F)cc3)C3C(=O)N(c4ccc(C)cc4)C(=O)C32)cc1 (centres undefined)	inactive: 6.02%	–
COc1ccc(C2=NO[C@@H]3[C@@H]4C[C@@H]([C@H]5C(=O)N(C)C(=O)[C@@H]45)[C@H]23)cc1	inconclusive: -5.64%	–
C=CCNC(=O)c1onc(CSc2ccc(C)c(C)c2)c1C(=O)O	–	inconclusive: 0.0251 µM [inhibitor, single point]
c1ccc2c(c1)OCC(c1csc3ncnc(N4CCCC4)c13)O2 (centres undefined)	–	inconclusive: 35.5 µM [fluorescent, single point]
COc1ccc(-c2nc3c(c4c2C[C@H](c2ccccc2)OC4)CN(C(=O)N[C@@H](C)c2ccccc2)CC3)c(C)c1	inactive: -3.3% [at 9.22 µM]	–
CC(C)Oc1ccc(CNC(=O)CCCN2C(=O)c3cccnc3Oc3ccc(Cl)cc32)cc1	inconclusive: -4.22% [at 46 µM]	–
O=C(CN1CCC(NC(=O)Cc2ccccc2)CC1)Nc1ccccc1Br	–	inconclusive: 14.1 µM [fluorescent, partial curve]

Ordered by count of non-hydrogen atoms (rising): part of the list above
Structure (SMILES)	ratio change, negative = inhibition	Potency
Cc1nn(C)c(Cl)c1/C=N/OC(=O)c1ccc(F)cc1	inconclusive: -10.3% [at 46 µM]	–
CCc1nnc(N/N=C/c2c(C)[nH]c3ccccc23)n1N	inconclusive: -12.8% [at 9.22 µM]	–
CCc1ccc(CNc2ncnc3c2nc2n3CCCC2)cc1	–	inconclusive: 31.6 µM [inhibitor, single point]
C=CCNC(=O)c1onc(CSc2ccc(C)c(C)c2)c1C(=O)O	–	inconclusive: 0.0251 µM [inhibitor, single point]
COc1ccc(OC)c2sc(N3CCN(C(=O)C(C)(C)C)CC3)nc12	inconclusive: 24.8% [at 46 µM]	–
Cc1c(CCNC(=O)c2ccc(Br)o2)sc2nc(-c3ccc(F)cc3)nn12	inactive: 2.03% [at 46 µM]	–
O=C(NC1CCCCCCC1)c1cc(COc2ccc3ncccc3c2)on1	inconclusive: -35.5% [at 46 µM]	–
COCCn1c(SCC(=O)c2ccc3c(c2)OCCO3)nnc1-c1ccoc1C	–	inconclusive: 15.8 µM [fluorescent, single point]
Cc1ccc(C(=O)N2NC(c3ccc(F)cc3)C3C(=O)N(c4ccc(C)cc4)C(=O)C32)cc1 (centres undefined)	inactive: 6.02%	–
CC(C)Oc1ccc(CNC(=O)CCCN2C(=O)c3cccnc3Oc3ccc(Cl)cc32)cc1	inconclusive: -4.22% [at 46 µM]	–
COc1ccc(-c2nc3c(c4c2C[C@H](c2ccccc2)OC4)CN(C(=O)N[C@@H](C)c2ccccc2)CC3)c(C)c1	inactive: -3.3% [at 9.22 µM]	–

(list continues)

Structure (SMILES)	ratio change, negative = inhibition	Potency
CCCCn1c2ccccc2c2nnc(SCC(=O)NC3=NN=C(c4ccccc4)CS3)nc21	–	inconclusive: 35.5 µM [falling, partial curve]
CC(=O)Oc1c(C)cc(OCC(O)CNC(C)C)c(C)c1C (centres undefined)	inconclusive: -9.41%	–
CCOC(=O)CSc1ncnc2c1nnn2-c1ccc(F)cc1	inconclusive: -10.4%	–
Cc1ccc(C)c(NC(=O)c2cnn(-c3cccc(F)c3)c2C2CCN(C(=O)OC(C)(C)C)CC2)c1	inactive: -16.1% [at 46 µM]	–
COc1ccc(/C=C/C(=O)Nc2ccccc2C(=O)O)cc1OC	inconclusive: -19.1%	–
O=Cc1ccccc1OCCOc1ccccc1C=O	inconclusive: -22.2%	–
COC(=O)c1c(NC(=O)c2cccc([N+](=O)[O-])c2)sc(C(N)=O)c1C	inconclusive: 10.9% [at 46 µM]	–
COC(=O)[C@@H]1[C@@H]2C[C@H]3c4[nH]c5ccccc5c4CCN3C[C@@H]2CC[C@@H]1O	inconclusive: 10.2%	–
COc1cc(C2/C(=C(/O)c3ccc(OCC(C)C)cc3)C(=O)C(=O)N2CCN(C)C)ccc1O (centres undefined)	inactive: -1.53%	–
O=C(O)CC/C(=C\c1cc([N+](=O)[O-])ccc1Cl)c1nc2ccccc2s1	inconclusive: 1.69%	–
CCN(CC)CCNC(=O)c1c(C)[nH]c(/C=C2\C(=O)Nc3ccc(F)cc32)c1C	–	inconclusive: 7.08 µM [inhibitor, full curve, poor fit]
S=C1N(c2ccccc2)C(c2ccc(Br)cc2)N2CCCN12 (centres undefined)	inconclusive: -31.1% [at 46 µM]	–
N#CC1=C(SCC(=O)NC2CC2)NC(=O)C(C#N)C12CCCCC2 (centres undefined)	inactive: 9.48%	–
Cc1ccc(C(=O)NC2CCCCCC2)o1	inactive: 4%	–
COC(=O)c1[nH]c(=O)c2ccccc2c1O	inactive: -1.74%	–
COc1ccc(OC)c(/C=N/Nc2nncn2/N=C/c2cc(OC)ccc2OC)c1	–	inconclusive: 12.6 µM [fluorescent, single point]
Cc1cc(C)c(S(=O)(=O)c2ccccc2)c(N2CCOCC2)n1	inactive: 0.213% [at 9.22 µM]	–
COc1ccccc1NC(=O)CSc1ccc(-c2cccs2)nn1	inconclusive: 15% [at 46 µM]	–
COc1ccc(NC(=O)c2c(NC(=O)CCC(=O)O)sc(-c3ccccc3)c2C)cc1	inactive: -4.77% [at 46 µM]	–
O=C1c2ccccc2NC(c2cn[nH]c2-c2ccc(Cl)cc2)N1O (centres undefined)	–	inconclusive: 12.6 µM [fluorescent, partial curve]
COC(=O)c1ccc(NC(=O)c2ccccc2NS(C)(=O)=O)cc1	inactive: -8.81%	–
COc1cccc2c(=S)c(CCC(C)=O)c(C)[nH]c12	inconclusive: -7.86%	–
CCCS(=O)(=O)N1CCCC(C(=O)NCCOC)C1 (centres undefined)	inactive: -10% [at 46 µM]	–
Cc1cccc(N2CCN(C(=O)C3COc4ccccc4O3)CC2)c1C (centres undefined)	inconclusive: -35.3% [at 46 µM]	–
